Test results taken from the supplement of paper PMC6411743.
± gives the standard deviation of the averaged measurements. The list shows a part of the results, in another mix than the full data.

Legend:
Assay in all cases: NP40-soluble protein abundance relative to vehicle (solubility fold change) (ratio); higher = more soluble protein in presence of ATP
[1] = target: T1, UniProt Q99640 and related entries
T1 sequence (whole entry): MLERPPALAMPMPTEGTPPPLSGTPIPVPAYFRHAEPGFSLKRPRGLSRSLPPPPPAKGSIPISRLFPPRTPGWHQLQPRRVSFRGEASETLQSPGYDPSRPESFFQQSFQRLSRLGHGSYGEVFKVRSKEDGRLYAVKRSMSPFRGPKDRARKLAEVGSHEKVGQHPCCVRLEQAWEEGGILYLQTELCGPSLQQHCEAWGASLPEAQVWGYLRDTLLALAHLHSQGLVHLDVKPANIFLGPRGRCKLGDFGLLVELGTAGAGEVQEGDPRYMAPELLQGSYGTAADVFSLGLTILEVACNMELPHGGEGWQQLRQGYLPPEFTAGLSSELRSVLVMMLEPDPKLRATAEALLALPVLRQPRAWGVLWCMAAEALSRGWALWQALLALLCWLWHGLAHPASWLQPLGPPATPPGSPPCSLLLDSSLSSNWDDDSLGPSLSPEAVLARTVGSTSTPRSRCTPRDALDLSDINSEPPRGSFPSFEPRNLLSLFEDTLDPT
Procedure, shortened: (§1)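 Eight concentrations, 0.1 to 10 mM, were tested on Jurkat crude lysate for 10 min at room temperature and then 3 min at 37 °C, in three independent experiments. The lysate was solubilised with 0.8% NP40 and benzonase, ultracentrifuged, and the supernatant TMT-labelled for LC-MS/MS. Each value is the fold change against the detergent-processed vehicle in its own replicate, from vsn-normalised intensities.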

[2] = target: T2, UniProt Q99683 and related entries
T2 sequence (whole entry): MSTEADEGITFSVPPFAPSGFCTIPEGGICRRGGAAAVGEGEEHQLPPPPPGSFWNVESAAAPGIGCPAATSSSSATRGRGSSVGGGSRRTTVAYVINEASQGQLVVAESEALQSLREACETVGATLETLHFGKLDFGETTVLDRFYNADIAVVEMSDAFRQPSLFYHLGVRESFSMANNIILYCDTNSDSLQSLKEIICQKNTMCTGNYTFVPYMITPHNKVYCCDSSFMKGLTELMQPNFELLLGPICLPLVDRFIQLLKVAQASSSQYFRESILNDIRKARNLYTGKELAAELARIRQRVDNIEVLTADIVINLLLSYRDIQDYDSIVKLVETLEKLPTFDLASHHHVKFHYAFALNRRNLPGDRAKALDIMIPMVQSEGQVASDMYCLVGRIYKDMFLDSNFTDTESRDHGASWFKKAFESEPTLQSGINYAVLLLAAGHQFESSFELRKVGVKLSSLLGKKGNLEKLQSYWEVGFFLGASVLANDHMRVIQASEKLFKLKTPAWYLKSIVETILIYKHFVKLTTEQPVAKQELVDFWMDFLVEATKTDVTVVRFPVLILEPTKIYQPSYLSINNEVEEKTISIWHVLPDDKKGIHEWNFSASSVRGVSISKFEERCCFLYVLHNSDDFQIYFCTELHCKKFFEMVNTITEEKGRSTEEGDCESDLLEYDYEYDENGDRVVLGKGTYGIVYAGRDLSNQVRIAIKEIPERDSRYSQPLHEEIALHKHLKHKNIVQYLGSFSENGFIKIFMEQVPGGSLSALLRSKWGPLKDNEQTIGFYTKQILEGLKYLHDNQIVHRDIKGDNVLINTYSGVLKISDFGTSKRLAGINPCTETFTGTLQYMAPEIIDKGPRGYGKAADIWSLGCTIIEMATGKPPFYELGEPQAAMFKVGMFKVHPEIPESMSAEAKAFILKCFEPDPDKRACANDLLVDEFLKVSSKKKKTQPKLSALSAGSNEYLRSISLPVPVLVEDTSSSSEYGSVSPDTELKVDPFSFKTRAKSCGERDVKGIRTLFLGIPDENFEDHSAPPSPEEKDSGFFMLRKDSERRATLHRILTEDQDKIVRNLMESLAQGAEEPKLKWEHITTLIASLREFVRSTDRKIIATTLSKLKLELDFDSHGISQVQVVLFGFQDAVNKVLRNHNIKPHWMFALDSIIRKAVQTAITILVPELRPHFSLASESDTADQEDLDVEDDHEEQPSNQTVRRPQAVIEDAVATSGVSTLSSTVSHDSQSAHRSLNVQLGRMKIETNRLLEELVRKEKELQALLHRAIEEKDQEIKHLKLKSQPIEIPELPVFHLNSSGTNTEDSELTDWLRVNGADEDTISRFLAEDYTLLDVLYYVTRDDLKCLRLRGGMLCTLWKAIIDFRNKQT
Procedure, shortened: as §1

UniProt Q99733-2 = target: T3, UniProt Q99733-2
T3 sequence (whole entry): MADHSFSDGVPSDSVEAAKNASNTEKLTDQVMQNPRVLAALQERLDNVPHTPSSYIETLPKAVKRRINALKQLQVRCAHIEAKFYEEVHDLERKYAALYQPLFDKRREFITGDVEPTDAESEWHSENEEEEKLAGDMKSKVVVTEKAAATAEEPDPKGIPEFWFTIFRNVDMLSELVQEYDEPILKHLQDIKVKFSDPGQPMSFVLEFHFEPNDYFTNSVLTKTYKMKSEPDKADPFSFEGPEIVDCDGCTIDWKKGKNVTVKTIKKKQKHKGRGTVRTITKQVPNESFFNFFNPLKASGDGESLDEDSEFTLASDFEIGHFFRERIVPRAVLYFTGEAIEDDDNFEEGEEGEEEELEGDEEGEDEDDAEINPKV
Procedure, shortened: as §1

[3] = target: T4, UniProt Q99808 and related entries
T4 sequence (whole entry): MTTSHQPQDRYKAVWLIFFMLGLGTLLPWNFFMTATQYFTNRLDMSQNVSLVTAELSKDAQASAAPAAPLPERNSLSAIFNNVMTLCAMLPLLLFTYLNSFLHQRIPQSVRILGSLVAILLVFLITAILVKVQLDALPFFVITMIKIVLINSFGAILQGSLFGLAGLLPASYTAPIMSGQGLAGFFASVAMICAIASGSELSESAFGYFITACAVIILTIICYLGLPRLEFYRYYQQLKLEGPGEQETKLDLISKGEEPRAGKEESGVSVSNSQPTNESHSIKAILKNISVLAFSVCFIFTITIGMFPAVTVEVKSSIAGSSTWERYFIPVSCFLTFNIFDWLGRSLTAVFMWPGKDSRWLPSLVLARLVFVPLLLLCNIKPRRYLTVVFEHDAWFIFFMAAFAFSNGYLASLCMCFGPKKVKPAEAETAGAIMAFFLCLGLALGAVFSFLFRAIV
Procedure, shortened: as §1

UniProt Q9BQ61 = target: T5, UniProt Q9BQ61
T5 sequence (whole entry): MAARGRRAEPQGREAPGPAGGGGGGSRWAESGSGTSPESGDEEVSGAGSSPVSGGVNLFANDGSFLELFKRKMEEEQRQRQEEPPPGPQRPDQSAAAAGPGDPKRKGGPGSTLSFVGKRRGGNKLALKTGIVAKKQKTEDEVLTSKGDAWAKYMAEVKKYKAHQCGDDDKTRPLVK
Procedure, shortened: as §1

UniProt Q9BRT3 = target: T6, UniProt Q9BRT3
T6 sequence (whole entry): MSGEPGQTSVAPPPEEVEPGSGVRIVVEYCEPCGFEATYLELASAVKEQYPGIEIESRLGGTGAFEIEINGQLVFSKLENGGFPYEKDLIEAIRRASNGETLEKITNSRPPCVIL
Procedure, shortened: as §1

UniProt Q9BRX9 = target: T7, UniProt Q9BRX9
T7 sequence (whole entry): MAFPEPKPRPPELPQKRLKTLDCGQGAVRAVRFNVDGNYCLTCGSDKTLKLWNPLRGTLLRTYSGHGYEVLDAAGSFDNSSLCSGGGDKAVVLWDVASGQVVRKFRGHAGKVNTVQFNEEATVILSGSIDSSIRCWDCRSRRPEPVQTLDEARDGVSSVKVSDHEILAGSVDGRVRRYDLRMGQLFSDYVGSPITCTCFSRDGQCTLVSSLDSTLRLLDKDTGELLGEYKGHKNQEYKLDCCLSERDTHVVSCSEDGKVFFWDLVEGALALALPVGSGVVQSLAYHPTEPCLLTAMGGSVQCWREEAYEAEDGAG
Procedure, shortened: as §1

## Nc1ncnc2c1ncn2[C@@H]1O[C@H](COP(=O)(O)OP(=O)(O)OP(=O)(O)O)[C@@H](O)[C@H]1O [adenosine triphosphate]
[1]; concentration: 1mM
  NP40-soluble protein abundance: 0.919 ± 0.064
[1]; concentration: 2mM
  NP40-soluble protein abundance: 0.976 ± 0.03
[1]; concentration: 4mM
  NP40-soluble protein abundance: 0.999 ± 0.081
[1]; concentration: 6mM
  NP40-soluble protein abundance: 0.981 ± 0.044
[1]; concentration: 8mM
  NP40-soluble protein abundance: 0.981 ± 0.13
[1]; concentration: 10mM
  NP40-soluble protein abundance: 0.967 ± 0.077
[2]; concentration: 1mM
  NP40-soluble protein abundance: 1.09 ± 0.12
[2]; concentration: 2mM
  NP40-soluble protein abundance: 1.15 ± 0.17
[2]; concentration: 4mM
  NP40-soluble protein abundance: 1.23 ± 0.27
[2]; concentration: 6mM
  NP40-soluble protein abundance: 1.2 ± 0.23
[2]; concentration: 8mM
  NP40-soluble protein abundance: 1.17 ± 0.26
[2]; concentration: 10mM
  NP40-soluble protein abundance: 1.22 ± 0.28
UniProt Q99733-2; concentration: 1mM
  NP40-soluble protein abundance: 0.915 ± 0.057
UniProt Q99733-2; concentration: 2mM
  NP40-soluble protein abundance: 0.958 ± 0.022
UniProt Q99733-2; concentration: 4mM
  NP40-soluble protein abundance: 0.916 ± 0.038
UniProt Q99733-2; concentration: 6mM
  NP40-soluble protein abundance: 0.973 ± 0.068
UniProt Q99733-2; concentration: 8mM
  NP40-soluble protein abundance: 0.926 ± 0.077
UniProt Q99733-2; concentration: 10mM
  NP40-soluble protein abundance: 0.949 ± 0.058
[3]; concentration: 1mM
  NP40-soluble protein abundance: 0.948 ± 0.1
[3]; concentration: 2mM
  NP40-soluble protein abundance: 0.92 ± 0.078
[3]; concentration: 4mM
  NP40-soluble protein abundance: 0.897 ± 0.048
[3]; concentration: 6mM
  NP40-soluble protein abundance: 0.895 ± 0.08
[3]; concentration: 8mM
  NP40-soluble protein abundance: 0.902 ± 0.065
[3]; concentration: 10mM
  NP40-soluble protein abundance: 0.913 ± 0.033
UniProt Q9BQ61; concentration: 1mM
  NP40-soluble protein abundance: 0.851 ± 0.094
UniProt Q9BQ61; concentration: 2mM
  NP40-soluble protein abundance: 0.905 ± 0.12
UniProt Q9BQ61; concentration: 4mM
  NP40-soluble protein abundance: 0.867 ± 0.12
UniProt Q9BQ61; concentration: 6mM
  NP40-soluble protein abundance: 0.897 ± 0.12
UniProt Q9BQ61; concentration: 8mM
  NP40-soluble protein abundance: 0.78 ± 0.08
UniProt Q9BQ61; concentration: 10mM
  NP40-soluble protein abundance: 0.806 ± 0.097
UniProt Q9BRT3; concentration: 1mM
  NP40-soluble protein abundance: 0.951 ± 0.051
UniProt Q9BRT3; concentration: 2mM
  NP40-soluble protein abundance: 0.908 ± 0.039
UniProt Q9BRT3; concentration: 4mM
  NP40-soluble protein abundance: 0.879 ± 0.022
UniProt Q9BRT3; concentration: 6mM
  NP40-soluble protein abundance: 0.963 ± 0.029
UniProt Q9BRT3; concentration: 8mM
  NP40-soluble protein abundance: 0.901 ± 0.031
UniProt Q9BRT3; concentration: 10mM
  NP40-soluble protein abundance: 0.843 ± 0.036
UniProt Q9BRX9; concentration: 1mM
  NP40-soluble protein abundance: 1.02 ± 0.082
UniProt Q9BRX9; concentration: 2mM
  NP40-soluble protein abundance: 0.999 ± 0.029
UniProt Q9BRX9; concentration: 4mM
  NP40-soluble protein abundance: 1.06 ± 0.021
UniProt Q9BRX9; concentration: 6mM
  NP40-soluble protein abundance: 0.993 ± 0.064
UniProt Q9BRX9; concentration: 8mM
  NP40-soluble protein abundance: 1 ± 0.043
UniProt Q9BRX9; concentration: 10mM
  NP40-soluble protein abundance: 1.08 ± 0.078
